The list shows a part of the results.
B1: il10ra_site1_normal_mot_b26a303360aa2756ef5b79665ce52f45_0001_000000179_0001_1_11_H_._HHH_b2_05266_af2_0001_0000200008_0000001_0 (protein)
chain: SSSSSSDEENRRAIELVREALHIDDPEEAEKLLEEARELAEEVNNFVLLFSIRHLLRDLGSSSSS
B2: il10ra_site1_normal_mot_HHH_b2_00033_000000036_0001_41_54_H_._HHH_b1_00094_af2_0001_0000300009_0000001_0 (protein)
chain: SSSSSEEEEEIRELEEQAKKARERGDPEEAARLLAEAVRLAHKLGDPELFQELWELVKKIASSSS
B3: il10ra_site1_sap_7_mot_HHH_b2_01447_af2_000000258_0001_1_20_H_._HHH_b1_01074_0001_0000100001_0000001_0_0001 (protein)
chain: SSSSSDEEEVEELLRRAEELRERGDPEEANELLQRAVRIAYQARNEELLREIWEVVKRLGSSSSS
B4: il10ra_site1_normal_mot_HHH_b1_05937_af2_000000262_0001_20_37_H_._HHH_b1_00702_0001_0000200012_0000002_0 (protein)
chain: SSSSDREEVRELLEQLEEAYEEGDREKFLRLIIRALRLIFRIGDDELIRELHELVKRLASSSSSS
B5: il10ra_site1_sap_17_mot_HHH_b1_01226_000000225_0001_1_19_H_._HHH_b2_06475_0001_0000200007_0000001_1_0001_af2pred_0001 (protein)
chain: SSSSSDEERRILKLYFRAYHLKENGDPEEARKLLEEALELAEEINDEALKRLIKRMLELLSSSSS
B6: il10ra_site1_normal_mot_HHH_b1_06837_000000150_0001_20_37_H_._HHH_b1_05137_0001_0000100003_0000001_0 (protein)
chain: SSSSTEENREIYELLRRASELDFEGNPEEAKEVLEEAERLAEENNNLNLLAQVEFLLRLISSSSS
B7: il10ra_site1_sap_18_mot_HHH_b2_00984_000000042_0001_1_20_H_._HHH_b2_05460_af2_0001_0000100001_0000001_0_0001_af2pred_0001 (protein)
chain: SSSSSSEELRRLLEEASELLQRGNEEEAEEVLEEARKLAEEENDPITRLAIEYLLRLIGSSSSSS
B8: il10ra_site1_sap_14_mot_HHH_b1_05083_af2_000000148_0001_42_57_H_._HHH_b2_07711_0001_0000100002_0000001_0_0001 (protein)
chain: SSSSSDDRVKEAVERMLKAARQLEDEEYARLALRFALADARHTNDEELQEEVEELLEEISSSSSS
B9: il10ra_site1_sap_23_mot_0eddeacbb14b769e73e254714f31e2f9_0001_af2_000000203_0001_37_51_H_._HHH_b2_01631_0001_0000100002_0000001_0_0001_af2pred_0001 (protein)
chain: SSSSSEEEEEIEELIRQLEEALKRGDEEKALELFLRAAKLIKKLGNKELAQLLDETAIKALSSSS
B10: il10ra_site1_sap_27_mot_HHH_b2_02736_000000092_0001_22_38_H_._HHH_b1_02819_0001_0000100016_0000001_0_0001 (protein)
chain: SSSSSRELYEALRRLAQLDTEGDEEEFERLVEEAERLAEEEGDRIFLLVIRAMLELFRKFNSSSS
B11: il10ra_site1_normal_mot_HHH_b1_05056_000000217_0001_1_20_H_._HHH_b2_02752_0001_0000300028_0000001_0 (protein)
chain: SSSSDLEEELEELLRELEKLIEEGDREKFARLALEIIRLAFRTGDPEVLQKLWELVREFASSSSS
B12: il10ra_site1_normal_mot_49468d6c54d8157f7969f91124172a68_0001_af2_000000173_0001_37_51_H_._HHH_b2_06864_af2_0001_0000100002_0000002_0_af2pred_0001 (protein)
chain: SSSSEESERILTEAAQLIVELLREGDEEEAERVAEEARRLLEELNDPEAVHLLEALLHQQKSSSS
B13: il10ra_site1_normal_mot_HHH_b1_00137_000000000_0001_1_19_H_._HHH_b2_06740_0001_0000500012_0000001_0 (protein)
chain: SSSDDQELTRFAAEVVVKLYDELGLSREQFRVLQELALKLVAEGFSEEEIRRILEEVAEELSSSS
B14: il10ra_site1_sap_25_mot_HHH_b1_05088_af2_000000046_0001_20_36_H_._ef5a302c84959cb026c21f894a3b1351_0001_0001_0000700018_0000001_0_0001_af2pred_0001 (protein)
chain: SSSSSHAEKAVKLFIRMAERAIELGDPETARRILRFAEFLAEEANNPELLEEARELLEQLKSSSS
B15: il10ra_site1_normal_mot_HHH_b2_08186_000000021_0001_43_56_H_._HHH_b2_01076_0001_0000500056_0000002_0 (protein)
chain: SSSSSSSSEVEEEVQRLLEEARENPEHAQELLAEALRLAFQHSNEELLQEIWRVLRELSSSSSSS
B16: il10ra_site1_sap_20_mot_HHH_b2_03425_000000200_0001_22_39_H_._HHH_b1_07284_af2_0001_0000400022_0000001_0_0001 (protein)
chain: SSSSDETERVMELLEEVTELDQKGNPEEAREVLREALELAEELGNWALRAAAEHLERVINSSSSS
B17: il10ra_site1_sap_19_mot_HHH_b1_02397_af2_000000085_0001_39_57_H_._HHH_b1_07123_0001_0000100001_0000002_0_0001 (protein)
chain: SSSSDVEEYVKLSERFAKWLEEVGNPEAAKRILEAAASAAENAGNPELLEELERLLEELRSSSSS
B18: il10ra_site1_normal_mot_HHH_b2_00033_000000036_0001_41_54_H_._HHH_b1_07736_0001_0000100005_0000001_0 (protein)
chain: SSSSSDEQQELFQLVWEAAKRRDEELLRELEERIRELYEETGDPALRALLRLIRLFLESLSSSSS
B19: il10ra_site1_normal_mot_HHH_b1_06789_af2_000000041_0001_1_20_H_._HHH_b1_07940_0001_0000100010_0000001_0_af2pred_0001 (protein)
chain: SSSSDVIRFVVEAALKTAKLAAERGDDEAVRRALEIAERTAEDANDPELLREVEEVKEELSSSSS
B20: il10ra_site1_normal_mot_1f0bf248c09923a0581b66a675a8b92c_0001_af2_000000190_0001_52_65_H_._HHH_b2_01395_af2_0001_0000700029_0000001_0_af2pred_0001 (protein)
chain: SSSSDEEEEKVRELIEEAIQLLLEGNPEEARKVLEEAIELAERLGDPELARRVRLLLRSVSSSSS
B21: il10ra_site1_sap_23_mot_ems_3hM_3349_af2_000000150_0001_25_42_H_._8eb524b276bbb897fd8f0cca34c37a2d_0001_af2_0001_0000300019_0000001_1_0001 (protein)
chain: SSSSDEEIREEVEELLERAEEIEDLREANEVLLRALRLAIQAQDPELLQLVWRVVHEVARSSSSS
B22: il10ra_site1_normal_mot_HHH_b2_05813_000000266_0001_1_19_H_._HHH_b1_01854_0001_0000400040_0000002_0_af2pred_0001 (protein)
chain: SSSSSEEERELLRLAVRIKRLLEEGDKEEVEKLAEELLELAKELGDPHAEFLARLILEELSSSSS
B23: il10ra_site1_normal_mot_HHH_b1_05326_000000242_0001_1_20_H_._HHH_b1_05311_0001_0000100004_0000001_0 (protein)
chain: SSSSSSDEALELSRRAFKAALHGNPEEARELLEEALELAEERGDERLARIIQDLLKVLSSSSSSS
B24: il10ra_site1_sap_23_mot_HHH_b2_06602_000000226_0001_1_16_H_._HHH_b1_06962_0001_0000200019_0000002_0_0001_af2pred_0001 (protein)
chain: SSSSSIHEKIIRLLFEALELYANGNPEEAERLIEEAEELAEELGDPELQEAIKQVRRFVESSSSS

molecular target: il10ra, Q13651; experiment: yeast display titration

Apparent Kd, inactive:
B1 no binding seen, B2 no binding seen, B3 no binding seen, B4 no binding seen, B5 no binding seen, B6 no binding seen, B7 no binding seen, B8 no binding seen, B9 no binding seen, B10 no binding seen, B11 no binding seen, B12 no binding seen, B13 no binding seen, B14 no binding seen, B15 no binding seen, B16 no binding seen, B17 no binding seen, B18 no binding seen, B19 no binding seen, B20 no binding seen, B21 no binding seen, B22 no binding seen, B23 no binding seen, B24 no binding seen

From paper PMC10163288
